Results published in paper PMC10630452, “The tumor-enriched small molecule gambogic amide suppresses glioma by targeting WDR1-dependent cytoskeleton remodeling” (Signal Transduction and Targeted Therapy, 2023).
No constants are given. Whether binding was seen depends on the method and setting. In cells and extracts the contact can be indirect. Some results given as binding are weak or reduced against the parent protein; the word gives no strength.

By UniProt entry, the sequences of proteins in these tests, tags left out.
UniProt P23528: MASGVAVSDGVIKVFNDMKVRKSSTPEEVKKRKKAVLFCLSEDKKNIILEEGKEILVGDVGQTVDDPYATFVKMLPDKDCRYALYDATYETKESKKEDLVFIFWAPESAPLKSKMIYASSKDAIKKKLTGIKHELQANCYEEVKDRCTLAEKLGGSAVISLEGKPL
UniProt P35579: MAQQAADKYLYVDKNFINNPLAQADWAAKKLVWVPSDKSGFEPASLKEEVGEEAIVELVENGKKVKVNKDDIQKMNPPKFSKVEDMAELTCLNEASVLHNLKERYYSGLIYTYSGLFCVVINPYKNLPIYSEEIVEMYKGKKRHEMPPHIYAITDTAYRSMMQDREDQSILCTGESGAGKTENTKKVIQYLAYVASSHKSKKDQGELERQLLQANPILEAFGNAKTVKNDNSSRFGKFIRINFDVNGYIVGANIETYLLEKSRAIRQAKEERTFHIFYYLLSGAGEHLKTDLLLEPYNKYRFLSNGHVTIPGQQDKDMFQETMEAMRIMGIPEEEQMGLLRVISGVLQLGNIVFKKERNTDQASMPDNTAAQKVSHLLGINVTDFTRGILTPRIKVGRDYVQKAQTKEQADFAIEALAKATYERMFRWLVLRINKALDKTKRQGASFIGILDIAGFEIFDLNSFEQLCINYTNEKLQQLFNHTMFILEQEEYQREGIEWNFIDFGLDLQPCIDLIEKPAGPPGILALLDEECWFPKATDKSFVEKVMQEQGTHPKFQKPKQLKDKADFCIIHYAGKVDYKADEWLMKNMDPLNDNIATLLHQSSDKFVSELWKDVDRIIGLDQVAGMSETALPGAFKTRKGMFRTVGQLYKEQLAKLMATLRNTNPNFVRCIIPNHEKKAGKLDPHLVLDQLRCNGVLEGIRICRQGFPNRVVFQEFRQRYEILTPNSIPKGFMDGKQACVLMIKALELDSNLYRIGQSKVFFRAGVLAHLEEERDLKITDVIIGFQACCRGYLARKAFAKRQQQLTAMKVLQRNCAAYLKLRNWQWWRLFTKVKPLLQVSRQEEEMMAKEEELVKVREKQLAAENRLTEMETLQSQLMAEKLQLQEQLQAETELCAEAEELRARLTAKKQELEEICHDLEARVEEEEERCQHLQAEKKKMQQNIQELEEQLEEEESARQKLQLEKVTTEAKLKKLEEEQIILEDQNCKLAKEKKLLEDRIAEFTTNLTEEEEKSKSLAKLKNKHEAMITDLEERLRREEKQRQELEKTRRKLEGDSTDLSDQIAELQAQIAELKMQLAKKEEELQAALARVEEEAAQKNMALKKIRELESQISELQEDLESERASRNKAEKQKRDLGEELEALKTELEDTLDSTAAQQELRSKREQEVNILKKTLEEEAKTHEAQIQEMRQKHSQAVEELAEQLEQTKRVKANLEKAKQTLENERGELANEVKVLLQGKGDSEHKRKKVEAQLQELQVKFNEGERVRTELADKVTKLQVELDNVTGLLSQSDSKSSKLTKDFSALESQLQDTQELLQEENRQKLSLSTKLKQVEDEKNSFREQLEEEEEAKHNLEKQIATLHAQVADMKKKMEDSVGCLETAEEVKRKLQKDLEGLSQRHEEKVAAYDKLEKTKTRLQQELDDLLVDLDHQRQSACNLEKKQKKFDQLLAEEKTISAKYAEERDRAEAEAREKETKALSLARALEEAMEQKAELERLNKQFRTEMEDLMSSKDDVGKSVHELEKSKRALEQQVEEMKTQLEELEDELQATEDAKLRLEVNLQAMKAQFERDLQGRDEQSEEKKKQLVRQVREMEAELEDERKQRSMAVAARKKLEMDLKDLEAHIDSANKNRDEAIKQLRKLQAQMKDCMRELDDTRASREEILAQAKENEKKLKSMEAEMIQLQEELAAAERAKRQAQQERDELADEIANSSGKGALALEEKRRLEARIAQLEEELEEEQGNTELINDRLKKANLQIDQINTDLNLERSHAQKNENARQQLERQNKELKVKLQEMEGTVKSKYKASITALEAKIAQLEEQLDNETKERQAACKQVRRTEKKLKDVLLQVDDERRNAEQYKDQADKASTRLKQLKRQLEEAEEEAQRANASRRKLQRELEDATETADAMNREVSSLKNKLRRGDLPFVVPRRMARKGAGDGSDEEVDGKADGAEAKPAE

Target: T1, WD repeat domain 1 (WDR1) (human (in T2-4 patient-derived glioma cells)) (UniProt O75083)
T1 sequence: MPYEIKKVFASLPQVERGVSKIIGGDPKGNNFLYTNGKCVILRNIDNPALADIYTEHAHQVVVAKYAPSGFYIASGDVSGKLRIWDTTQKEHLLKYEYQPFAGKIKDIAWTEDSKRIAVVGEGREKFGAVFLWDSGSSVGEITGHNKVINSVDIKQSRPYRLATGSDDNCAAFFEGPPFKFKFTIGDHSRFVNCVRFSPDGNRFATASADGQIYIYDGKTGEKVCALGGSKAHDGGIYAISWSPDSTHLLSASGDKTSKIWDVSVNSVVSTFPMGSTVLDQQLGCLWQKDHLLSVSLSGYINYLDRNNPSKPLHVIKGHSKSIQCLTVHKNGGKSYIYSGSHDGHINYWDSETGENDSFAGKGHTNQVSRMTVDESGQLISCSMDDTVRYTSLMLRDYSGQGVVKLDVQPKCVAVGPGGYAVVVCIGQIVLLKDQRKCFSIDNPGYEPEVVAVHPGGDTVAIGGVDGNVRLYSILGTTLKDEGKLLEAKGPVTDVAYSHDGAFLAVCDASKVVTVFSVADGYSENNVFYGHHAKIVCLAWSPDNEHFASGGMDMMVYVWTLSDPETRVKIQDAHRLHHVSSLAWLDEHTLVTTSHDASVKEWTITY
Test: co-IP; IP of WDR1 from T2-4 cells and western blot of the bound proteins ('in vitro IP experiment'); treated with different concentrations of GA-amide

binding | Substance
binds | Cofilin (from UniProt P23528 1-166)
binds | myosin heavy chain 9 (MYH9) (from UniProt P35579 1-1960)
